Results: article PMC11979000
No constants are given. Whether binding was seen depends on the method and setting. Binding seen in cells or lysates may run through a third protein. Some entries that bind do so weakly or less than the wild type.

Amino acid sequences for entries named in this document (tags omitted).
UniProt Q02952: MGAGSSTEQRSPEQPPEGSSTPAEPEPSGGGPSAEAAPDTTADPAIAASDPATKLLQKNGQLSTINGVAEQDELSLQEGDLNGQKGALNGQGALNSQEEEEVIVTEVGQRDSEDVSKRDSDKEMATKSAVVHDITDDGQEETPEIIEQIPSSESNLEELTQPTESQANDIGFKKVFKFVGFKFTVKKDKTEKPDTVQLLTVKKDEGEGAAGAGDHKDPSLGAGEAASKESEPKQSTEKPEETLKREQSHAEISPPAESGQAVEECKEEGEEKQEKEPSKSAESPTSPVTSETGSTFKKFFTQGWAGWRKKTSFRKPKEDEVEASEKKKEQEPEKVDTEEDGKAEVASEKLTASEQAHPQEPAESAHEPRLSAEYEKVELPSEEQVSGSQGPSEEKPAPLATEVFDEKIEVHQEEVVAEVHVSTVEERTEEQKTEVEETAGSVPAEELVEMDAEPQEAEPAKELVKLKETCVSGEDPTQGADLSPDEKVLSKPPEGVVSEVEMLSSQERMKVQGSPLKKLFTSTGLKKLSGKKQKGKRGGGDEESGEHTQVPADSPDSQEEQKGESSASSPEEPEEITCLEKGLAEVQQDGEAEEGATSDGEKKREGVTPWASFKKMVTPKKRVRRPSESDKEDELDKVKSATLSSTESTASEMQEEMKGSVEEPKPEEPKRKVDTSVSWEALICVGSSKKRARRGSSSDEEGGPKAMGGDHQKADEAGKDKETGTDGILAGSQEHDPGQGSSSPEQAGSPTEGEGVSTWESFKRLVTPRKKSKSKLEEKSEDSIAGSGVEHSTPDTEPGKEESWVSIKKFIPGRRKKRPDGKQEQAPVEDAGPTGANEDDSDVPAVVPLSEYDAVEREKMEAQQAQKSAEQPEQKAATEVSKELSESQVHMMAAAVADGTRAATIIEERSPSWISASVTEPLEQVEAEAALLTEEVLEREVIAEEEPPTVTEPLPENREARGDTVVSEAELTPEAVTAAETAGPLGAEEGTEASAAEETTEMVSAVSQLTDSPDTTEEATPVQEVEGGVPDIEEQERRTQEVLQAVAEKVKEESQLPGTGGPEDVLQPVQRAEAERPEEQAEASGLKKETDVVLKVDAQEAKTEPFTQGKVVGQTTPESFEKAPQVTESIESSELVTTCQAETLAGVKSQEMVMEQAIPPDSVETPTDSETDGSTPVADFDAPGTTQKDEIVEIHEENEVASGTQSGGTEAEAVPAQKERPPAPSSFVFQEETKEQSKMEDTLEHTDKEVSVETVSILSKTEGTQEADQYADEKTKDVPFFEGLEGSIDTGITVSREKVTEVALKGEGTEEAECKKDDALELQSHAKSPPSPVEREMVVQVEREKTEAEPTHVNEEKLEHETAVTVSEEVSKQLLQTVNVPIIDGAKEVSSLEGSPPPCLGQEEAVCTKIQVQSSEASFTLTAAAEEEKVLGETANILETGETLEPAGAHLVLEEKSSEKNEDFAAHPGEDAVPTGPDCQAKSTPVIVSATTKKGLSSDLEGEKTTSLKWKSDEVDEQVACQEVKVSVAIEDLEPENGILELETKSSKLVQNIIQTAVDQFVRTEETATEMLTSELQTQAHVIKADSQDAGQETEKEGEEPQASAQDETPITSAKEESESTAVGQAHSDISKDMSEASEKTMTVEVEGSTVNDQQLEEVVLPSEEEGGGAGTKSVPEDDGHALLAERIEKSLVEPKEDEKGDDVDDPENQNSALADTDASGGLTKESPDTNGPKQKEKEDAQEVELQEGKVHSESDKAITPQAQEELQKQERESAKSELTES
UniProt Q9WTQ5: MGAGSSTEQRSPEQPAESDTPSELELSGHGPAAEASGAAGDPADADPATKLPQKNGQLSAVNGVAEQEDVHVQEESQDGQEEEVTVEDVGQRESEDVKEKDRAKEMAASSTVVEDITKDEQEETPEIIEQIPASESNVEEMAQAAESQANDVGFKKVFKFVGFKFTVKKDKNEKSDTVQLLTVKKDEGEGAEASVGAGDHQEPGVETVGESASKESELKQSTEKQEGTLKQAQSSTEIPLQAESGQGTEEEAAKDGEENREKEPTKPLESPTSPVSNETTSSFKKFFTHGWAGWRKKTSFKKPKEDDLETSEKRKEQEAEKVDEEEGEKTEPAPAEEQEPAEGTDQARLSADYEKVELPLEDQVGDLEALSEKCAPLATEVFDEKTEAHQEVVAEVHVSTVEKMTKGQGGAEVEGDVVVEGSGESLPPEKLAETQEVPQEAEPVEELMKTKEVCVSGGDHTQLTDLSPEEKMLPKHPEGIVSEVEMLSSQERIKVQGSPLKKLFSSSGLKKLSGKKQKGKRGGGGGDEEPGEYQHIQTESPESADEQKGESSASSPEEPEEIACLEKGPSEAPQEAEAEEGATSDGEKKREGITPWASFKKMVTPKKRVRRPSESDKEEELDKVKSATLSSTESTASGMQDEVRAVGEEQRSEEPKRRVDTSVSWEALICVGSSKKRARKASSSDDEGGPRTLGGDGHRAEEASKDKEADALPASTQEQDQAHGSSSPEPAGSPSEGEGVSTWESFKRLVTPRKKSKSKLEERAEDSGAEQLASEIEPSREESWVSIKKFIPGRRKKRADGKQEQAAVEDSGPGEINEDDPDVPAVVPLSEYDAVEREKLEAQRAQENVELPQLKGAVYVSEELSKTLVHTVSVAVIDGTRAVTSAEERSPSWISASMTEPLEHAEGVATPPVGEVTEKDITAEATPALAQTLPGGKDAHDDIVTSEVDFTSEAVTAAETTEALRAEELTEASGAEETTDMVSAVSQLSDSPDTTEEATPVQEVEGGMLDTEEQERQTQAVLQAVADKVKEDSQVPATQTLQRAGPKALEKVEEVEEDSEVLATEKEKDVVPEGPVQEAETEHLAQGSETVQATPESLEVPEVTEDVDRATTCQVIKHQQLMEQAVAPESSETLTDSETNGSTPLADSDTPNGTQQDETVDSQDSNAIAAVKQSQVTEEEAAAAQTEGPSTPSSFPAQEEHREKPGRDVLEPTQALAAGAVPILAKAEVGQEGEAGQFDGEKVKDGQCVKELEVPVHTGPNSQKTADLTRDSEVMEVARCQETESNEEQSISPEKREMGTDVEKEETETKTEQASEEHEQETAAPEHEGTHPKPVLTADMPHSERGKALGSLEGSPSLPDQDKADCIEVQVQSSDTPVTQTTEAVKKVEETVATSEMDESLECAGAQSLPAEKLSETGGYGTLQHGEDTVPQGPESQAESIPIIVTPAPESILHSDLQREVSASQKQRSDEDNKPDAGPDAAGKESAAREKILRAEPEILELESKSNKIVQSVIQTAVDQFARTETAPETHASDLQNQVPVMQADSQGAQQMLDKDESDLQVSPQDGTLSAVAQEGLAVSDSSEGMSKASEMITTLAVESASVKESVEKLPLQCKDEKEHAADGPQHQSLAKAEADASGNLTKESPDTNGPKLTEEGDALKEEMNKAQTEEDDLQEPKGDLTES
UniProt P10644: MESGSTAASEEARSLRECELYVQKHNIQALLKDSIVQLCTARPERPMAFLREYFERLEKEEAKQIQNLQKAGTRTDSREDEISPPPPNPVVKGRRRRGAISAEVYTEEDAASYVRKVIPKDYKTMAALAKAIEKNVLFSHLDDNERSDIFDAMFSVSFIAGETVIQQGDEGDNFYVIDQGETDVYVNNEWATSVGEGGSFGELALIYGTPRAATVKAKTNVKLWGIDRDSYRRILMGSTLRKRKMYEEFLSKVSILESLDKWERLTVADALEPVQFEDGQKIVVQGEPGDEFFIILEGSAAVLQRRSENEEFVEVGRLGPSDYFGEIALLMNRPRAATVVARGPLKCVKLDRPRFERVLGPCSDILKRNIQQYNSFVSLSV
UniProt P13861: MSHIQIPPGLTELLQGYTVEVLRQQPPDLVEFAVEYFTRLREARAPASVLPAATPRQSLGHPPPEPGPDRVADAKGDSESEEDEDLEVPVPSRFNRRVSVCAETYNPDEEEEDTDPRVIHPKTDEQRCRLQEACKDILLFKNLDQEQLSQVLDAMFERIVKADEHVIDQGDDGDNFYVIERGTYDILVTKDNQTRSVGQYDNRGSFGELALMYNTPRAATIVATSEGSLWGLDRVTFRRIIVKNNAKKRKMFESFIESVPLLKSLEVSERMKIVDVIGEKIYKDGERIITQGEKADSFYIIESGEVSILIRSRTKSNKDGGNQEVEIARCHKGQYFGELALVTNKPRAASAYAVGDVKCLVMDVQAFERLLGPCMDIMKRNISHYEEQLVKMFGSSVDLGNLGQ
UniProt P12367: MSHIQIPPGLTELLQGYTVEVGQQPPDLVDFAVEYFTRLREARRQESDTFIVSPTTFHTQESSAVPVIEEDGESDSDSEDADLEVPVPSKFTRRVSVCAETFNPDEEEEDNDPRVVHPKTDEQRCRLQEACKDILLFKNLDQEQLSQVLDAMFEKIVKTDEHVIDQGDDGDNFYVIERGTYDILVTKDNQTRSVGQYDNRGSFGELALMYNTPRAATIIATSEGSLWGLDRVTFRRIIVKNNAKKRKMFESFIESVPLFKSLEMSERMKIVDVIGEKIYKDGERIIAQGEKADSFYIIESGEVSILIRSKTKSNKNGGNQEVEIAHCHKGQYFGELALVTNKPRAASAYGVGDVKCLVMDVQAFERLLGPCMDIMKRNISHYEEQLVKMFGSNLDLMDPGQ
UniProt O00506: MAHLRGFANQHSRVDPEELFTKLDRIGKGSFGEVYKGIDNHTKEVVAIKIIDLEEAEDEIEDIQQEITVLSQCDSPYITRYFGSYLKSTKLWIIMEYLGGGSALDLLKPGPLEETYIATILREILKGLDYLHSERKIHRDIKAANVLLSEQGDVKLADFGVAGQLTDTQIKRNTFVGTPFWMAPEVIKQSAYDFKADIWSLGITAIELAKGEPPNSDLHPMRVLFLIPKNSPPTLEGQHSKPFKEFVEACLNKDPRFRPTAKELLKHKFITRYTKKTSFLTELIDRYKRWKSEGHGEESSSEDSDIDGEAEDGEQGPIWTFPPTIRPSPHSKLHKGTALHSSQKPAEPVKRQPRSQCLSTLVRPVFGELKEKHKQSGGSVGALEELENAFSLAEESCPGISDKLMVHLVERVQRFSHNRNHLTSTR

Key:
[1] = target: A-kinase anchoring protein 12 (AKAP12), human (human (endogenous in primary human hepatocytes and human liver tissue)) (UniProt Q02952); assay: proximity ligation; cultured primary human hepatocytes, control or ethanol; PLA-probe linked secondary rabbit or mouse IgG; also with STK25 siRNA or AKAP12 vector
[2] = target: A-kinase anchoring protein 12 (AKAP12), human (human (endogenous in primary human hepatocytes and human liver tissue)) (UniProt Q02952); assay: proximity ligation; paraffin-embedded human liver steatosis tissue array (6 normal, 19 steatosis with alcohol, 5 without); antibodies conjugated to PLA plus or minus probes; AKAP12-PKAR2A red, AKAP12-PKAR1A green
[3] = target: A-kinase anchoring protein 12 (AKAP12), human (human (endogenous in primary human hepatocytes and human liver tissue)) (UniProt Q02952); assay: co-IP; total protein (300-500 ug) of primary human hepatocytes in IP lysis buffer, pre-cleared, precipitated with 2 ug AKAP12 antibody, blotted for PKAR2A or PKAR1A; cells control or 100 mM ethanol 24 h; WT (Cas9 alone) or PKA-BD CRISPR cells
[4] = target: A-kinase anchoring protein 12 (AKAP12), mouse (mouse (endogenous in mouse hepatocytes and liver)) (UniProt Q9WTQ5); assay: co-IP; total liver protein of pair-fed or ethanol-fed mice in IP lysis buffer, precipitated with AKAP12 antibody, blotted for PKAR2
[5] = target: PKA regulatory subunit RI-alpha (PKAR1A), human (human (endogenous in primary human hepatocytes and human liver tissue)) (UniProt P10644); assay: proximity ligation; cultured primary human hepatocytes, control or ethanol; PLA-probe linked secondary rabbit or mouse IgG; also with STK25 siRNA or AKAP12 vector

| binding [1] | binding [2] | binding [3] | binding [4] | binding [5] | Substance |
| --- | --- | --- | --- | --- | --- |
| binds | binds | binds |  |  | PKA regulatory subunit RI-alpha (PKAR1A), human (from UniProt P10644 1-381) |
|  | binds | binds |  |  | PKA regulatory subunit RII-alpha (PKAR2A), human (from UniProt P13861 1-404) |
|  |  |  | binds |  | Protein kinase type II-alpha (PKA regulatory subunit RII-alpha), mouse (from UniProt P12367 1-401) |
|  |  |  |  | binds | serine/threonine-protein kinase 25 (STK25), human (from UniProt O00506 1-426) (enzyme) |
